# Assay results taken from PubChem BioAssay AID588590 (National Center for Advancing Translational Sciences (NCATS), 2011).
# Amino acid sequences for entries named in this document (tags omitted). A change or cut given only in a name is not applied to a line headed by its entry.
# UniProt Q9UNA4: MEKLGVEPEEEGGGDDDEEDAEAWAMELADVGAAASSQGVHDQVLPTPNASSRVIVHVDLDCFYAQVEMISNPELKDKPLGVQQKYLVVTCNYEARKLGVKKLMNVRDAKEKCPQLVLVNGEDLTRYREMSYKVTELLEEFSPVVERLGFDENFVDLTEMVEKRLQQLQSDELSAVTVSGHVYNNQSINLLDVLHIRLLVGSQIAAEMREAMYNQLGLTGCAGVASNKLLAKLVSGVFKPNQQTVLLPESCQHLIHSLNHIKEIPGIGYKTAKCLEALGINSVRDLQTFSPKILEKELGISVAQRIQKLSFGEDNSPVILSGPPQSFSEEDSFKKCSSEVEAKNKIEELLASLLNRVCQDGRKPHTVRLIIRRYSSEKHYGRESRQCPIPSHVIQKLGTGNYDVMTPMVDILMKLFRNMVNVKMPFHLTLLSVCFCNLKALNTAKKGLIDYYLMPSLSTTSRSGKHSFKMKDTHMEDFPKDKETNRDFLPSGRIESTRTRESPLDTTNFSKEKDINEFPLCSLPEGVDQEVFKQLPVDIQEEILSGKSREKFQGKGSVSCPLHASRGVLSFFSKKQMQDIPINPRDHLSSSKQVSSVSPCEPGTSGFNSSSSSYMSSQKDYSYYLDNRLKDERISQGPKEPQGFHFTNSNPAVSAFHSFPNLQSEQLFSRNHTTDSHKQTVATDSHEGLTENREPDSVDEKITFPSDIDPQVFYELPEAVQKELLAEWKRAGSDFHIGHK
# Several values for one entry are separate records, joined by “and”; a condition that tells them apart may be missing. Identical values can stand only once. Screen size: about 390,000 compounds; about 4,000 (1%) were called active. Inconclusive results, whose numbers are uncertain, are shown with a selection of clear calls. Calls follow the shape of the dose curve; as a rule, active = well fitted inhibition curve with a large enough effect; inconclusive = small, poorly fitted or top-dose-only effect, or another doubt; inactive = no such curve, though single readings can be large or run the other way. Potencies of inconclusive entries are doubtful fits and often do not repeat.
# Molecular target: DNA polymerase iota (Homo sapiens) (UniProt Q9UNA4)
# Experiment: qHTS for Inhibitors of Polymerase Iota
# Settings: Pol iota fluorescent replication assay, 10 min; series mostly up to 115 µM; activity, negative = inhibition: at the top concentration
# In short: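 Fluorescent replication assay read twice, at 0 min and 10 min after adding 50 nM (final) substrate. Enzyme (10 nM) and compounds were first incubated 15 min at room temperature; enzyme-free buffer wells were negative controls.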
# Potency is read from the fitted curve at half-maximal effect.
Structure (SMILES),Potency,"activity, negative = inhibition"
CCn1c(SCC(=O)c2ccc(CNC(C)=O)o2)nnc1-c1cccs1,"inconclusive: 44.7 µM [inhibitor, partial curve, poor fit]",–
CCN1CCc2nc(SCC(=O)Nc3ccc(OC)cc3)c(C#N)cc2C1,"inconclusive: 39.8 µM [inhibitor, single point]",–
O=[N+]([O-])c1ccc(C2=NN(CCO)C(=Nc3ccc(OC(F)(F)F)cc3)SC2)cc1,"inconclusive: 56.2 µM [inhibitor, partial curve, poor fit]",–
CCc1ccccc1NC(=O)/C(C#N)=C\c1ccc(Sc2ccccc2)o1,"inconclusive: 8.91 µM [inhibitor, full curve]",–
CCc1ccc(Nc2nc3c(S(=O)(=O)c4cccc(Cl)c4)nnn3c3ccsc23)cc1,"inconclusive: 100 µM [inhibitor, partial curve, poor fit]",–
Cc1ccc(N2C3=C(C(=O)CC(C)(C)C3)C(c3cn(C)nc3C)C3=C2CC(C)(C)CC3=O)cc1,"inconclusive: 25.1 µM [inhibitor, partial curve, poor fit]",–
Cc1ccccc1-n1nc2c(c1NC(=O)C(C)C)CS(=O)(=O)C2,–,inactive: 33.3%
OCCC1CN(Cc2cccc3c2OCO3)CCN1C1CCCCC1 (stereo not drawn),"inconclusive: 20 µM [inhibitor, full curve, poor fit]",–
COc1ccc(CN2CCNC(=O)C2CC(=O)NC2CCOCC2)cc1C (stereo not drawn),–,inactive: 15.1%
CCOC(=O)CN1C(=N)N(c2nc(NC(C)C)nc(OC)n2)CC1=O,active: 79.4 µM,–
Cc1ccc2c(c1)cc(C)c1nnc(SCC(=O)NCc3ccco3)n12,"inconclusive: 100 µM [inhibitor, partial curve, poor fit]",–
COc1cc(C(=O)NCCN2CCOCC2)cc(OC)c1OC,"inconclusive: 89.1 µM [inhibitor, partial curve, poor fit]",–
Cc1ccc(S(=O)(=O)CCc2nc3ccccc3n2CCC#N)cc1,"inconclusive: 39.8 µM [inhibitor, single point]",–
Cc1nc2cccnc2n1C1CCN(S(=O)(=O)c2ccc(C(C)C)cc2)CC1,"inconclusive: 89.1 µM [inhibitor, single point]",–
CCc1nn(CC(=O)NCCN(CC)CC)c(=O)c2cc3occc3n12,–,inactive: -12.9%
Cc1noc(C)c1C(=O)OCC(=O)Nc1ncc(Cl)c(C)c1Cl,"inconclusive: 39.8 µM [inhibitor, partial curve, poor fit]",–
Cc1ccc(S(=O)(=O)N2CCN(C(=O)COC(=O)COc3ccc(Br)cc3)CC2)c(C)c1,"inconclusive: 0.251 µM [inhibitor, full curve, poor fit]",–
O=C(NCCc1ccccc1)c1ccc(=O)[nH]c1,–,inactive: 0.933%
NS(=O)(=O)c1cccnc1Nc1cccc(Cl)c1,"inconclusive: 79.4 µM [inhibitor, partial curve, poor fit]",–

Structure (SMILES),Potency,"activity, negative = inhibition"
CCCCN(CC)CCNC(=O)c1cc2c(=O)n(C)c3ccccc3c2s1,–,inactive: -4.13%
Cc1ccc2nc(-c3sc4nc(C)cc(C)c4c3N)[nH]c2c1,"inconclusive: 100 µM [inhibitor, partial curve, poor fit]",–
O=C(CSc1nc(-c2ccco2)nc2cc(=O)[nH]n12)Nc1ccccc1F,"inconclusive: 89.1 µM [inhibitor, single point]",–
CCOc1cc(/C=C(/C#N)C(=O)Nc2ccc(OC)cc2)ccc1OCc1ccc(C(=O)O)cc1,"inconclusive: 20 µM [inhibitor, partial curve, poor fit]",–
Nc1ccc(-c2ccc(N)c(C(=O)O)c2)cc1C(=O)O,"inconclusive: 56.2 µM [inhibitor, partial curve, poor fit]",–
CCOc1cc(C#N)ccc1OCC(=O)N1CCc2ccccc2C1,"inconclusive: 89.1 µM [inhibitor, single point]",–
Cc1ccc(S(=O)(=O)Nc2ccc(NC(=O)c3c(F)c(F)c(F)c(F)c3F)cc2)cc1,"inconclusive: 10 µM [inhibitor, single point]",–
CCc1ccc([C@H]2C(C(=O)O)=C[C@@H](CC)N2S(=O)(=O)c2ccc(C)cc2)cc1,"inconclusive: 22.4 µM [inhibitor, full curve]",–
C[C@@H](NC(=O)CN(c1ccccc1)S(=O)(=O)N(C)C)c1ccccc1,–,inactive: 18.8%
COc1ccc(C(CC(=O)N2CCOCC2)c2c(OC)cc(OC)c3ccc(=O)oc23)cc1 (stereo not drawn),"inconclusive: 39.8 µM [inhibitor, single point] and inconclusive: 89.1 µM [inhibitor, partial curve]",–
Cc1ccc(NC(=O)Nn2cnnc2)c(C)c1,"inconclusive: 89.1 µM [inhibitor, single point]",–
COc1cc(OC)cc(C(=O)Nc2nc(-c3nnn(-c4ccc(F)c(Cl)c4)c3C)ns2)c1,"inconclusive: 44.7 µM [inhibitor, partial curve, poor fit]",–
CC(=O)n1cc(N(C(=O)CCl)c2ccc([N+](=O)[O-])cc2)c2ccccc21,"inconclusive: 31.6 µM [inhibitor, partial curve, poor fit]",–
O=C(O)C1CSC(c2ccncc2)N1 (stereo not drawn),–,inactive: 14.6%
COc1ccc(N2CCN(S(=O)(=O)c3ccc4c(c3)N(C(C)=O)CCO4)CC2)cc1,"inconclusive: 70.8 µM [inhibitor, partial curve, poor fit]",–
C/C(=N/NC(=O)CNc1ccc(C)cc1)c1ccc(Cl)cc1,"inconclusive: 89.1 µM [inhibitor, single point]",–
O=C(NCc1ccc(Cl)cc1)C1CCN(S(=O)(=O)c2ccc3c(c2)CCCN3C(=O)C2CCC2)CC1,"inconclusive: 89.1 µM [inhibitor, single point]",–
CCN(Cc1cccc(S(=O)(=O)O)c1)c1ccc(C(=C2C=CC(=[N+](CC)Cc3cccc(S(=O)(=O)O)c3)C=C2)c2ccccc2S(=O)(=O)[O-])cc1,"inconclusive: 3.55 µM [inhibitor, full curve, poor fit]",–
CCOc1cc(/C=C2/NC(=S)NC2=O)ccc1OCc1ccc([N+](=O)[O-])cc1,"inconclusive: 12.6 µM [inhibitor, full curve, poor fit]",–
